Reference: publication doi:10.1101/2020.04.16.001255
No constants are given. Whether binding was seen depends on the method and setting. In cells and extracts the contact can be indirect. Some binding calls cover weakened binding; strength is not graded here.

Assays:
[1] = target: TIP60-HA (UniProt Q92993); test: co-IP
[2] = target: p53-EGFP (UniProt P04637); test: co-IP

Substance	binding [1]	binding [2]
p53-EGFP (from UniProt P04637 1-393)	binds	
TIP60-HA (from UniProt Q92993 1-513)		binds
